Experimental data: PubChem BioAssay AID1259425 (University of Nebraska Medical Center, 2018)
Shown is one part, drawn at random, of about 14,000 reagents. The record does not give: the time to read-out.

Purpose: 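Find knockdowns that reproduce the gene expression pattern seen when KSR1 is lost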 (primary screen)
Cells: HCT116 human colon cancer cells
Knock-down reagent: siRNA pool against human genes, 50 nM siRNA
Detection: 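After 50 nM siRNA pool, branched-DNA assay measures six marker transcripts per well, minus blank, normalised to the geometric mean of two housekeeping transcripts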
Scale: BNIP3L mRNA: higher = more BNIP3L transcript after knockdown; NDRG1 mRNA: higher = more NDRG1 transcript after knockdown; BNIP3 mRNA: higher = more BNIP3 transcript after knockdown; ALDOC mRNA: higher = more ALDOC transcript after knockdown; ACSL5 mRNA: higher = more ACSL5 transcript after knockdown

gene knocked down | BNIP3L mRNA, set 1 | NDRG1 mRNA, set 1 | BNIP3 mRNA, set 1 | ALDOC mRNA, set 1 | ACSL5 mRNA, set 1
IL17C (GeneID 27189) | 0.12 | 0.351 | 0.148 | 0.027 | 0.174
DDX19B (GeneID 11269) | 0.0806 | 0.0986 | 0.242 | 0.0502 | 0.106
FAM86C1P (GeneID 55199) | 0.119 | 0.162 | 0.306 | 0.0383 | 0.144
FAM217B (GeneID 63939) | 0.0815 | 0.17 | 0.218 | 0.0333 | 0.203
DCAF11 (GeneID 80344) | 0.195 | 0.507 | 0.436 | 0.112 | 0.229
CIAO2B (GeneID 51647) | 0.127 | 0.133 | 0.363 | 0.0277 | 0.171
SGSM2 (GeneID 9905) | 0.16 | 0.535 | 0.211 | 0.0492 | 0.271
OR2H1 (GeneID 26716) | 0.32 | 0.239 | 0.765 | 0.0871 | 0.226
NEK3 (GeneID 4752) | 0.0589 | 0.0261 | 0.151 | 0.00357 | 0.229
RAB32 (GeneID 10981) | 0.092 | 0.0971 | 0.35 | 0.0128 | 0.296
ACY1 (GeneID 95) | 0.0811 | 0.213 | 0.419 | 0.0295 | 0.116
SLC29A3 (GeneID 55315) | 0.128 | 0.222 | 0.358 | 0.0715 | 0.255
PATZ1 (GeneID 23598) | 0.0767 | 0.477 | 0.294 | 0.00843 | 0.156
CCDC191 (GeneID 57577) | 0.0519 | 0.471 | 0.212 | 0.0182 | 0.238
FOXRED2 (GeneID 80020) | 0.312 | 0.651 | 0.871 | 0.0805 | 0.251
USHBP1 (GeneID 83878) | 0.269 | 0.243 | 0.47 | 0.0438 | 0.522
IL4 (GeneID 3565) | 0.0485 | 0.134 | 0.184 | 0.0229 | 0.0963
EXT1 (GeneID 2131) | 0.133 | 0.173 | 0.429 | 0.0131 | 0.215
APOA4 (GeneID 337) | 0.0714 | 0.146 | 0.0927 | 0.0233 | 0.17
ATP5MG (GeneID 10632) | 0.0511 | 0.225 | 0.284 | 0.016 | 0.181
PKN3 (GeneID 29941) | 0.163 | 0.132 | 0.351 | 0.0147 | 0.25
SPTLC1 (GeneID 10558) | 0.0739 | 0.669 | 0.312 | 0.0248 | 0.239
TFCP2L1 (GeneID 29842) | 0.0835 | 0.31 | 0.387 | 0.0232 | 0.231
EPB42 (GeneID 2038) | 0.0513 | 0.111 | 0.265 | 0.0354 | 0.152
MIS18BP1 (GeneID 55320) | 0.129 | 0.25 | 0.351 | 0.0192 | 0.17
EIF4EBP1 (GeneID 1978) | 0.0824 | 0.0933 | 0.408 | 0.0136 | 0.142
TRAF3 (GeneID 7187) | 0.0789 | 0.0503 | 0.253 | 0.017 | 0.14
BAZ1A (GeneID 11177) | 0.105 | 0.162 | 0.341 | 0.0512 | 0.303
DENND5A (GeneID 23258) | 0.205 | 0.274 | 0.304 | 0.0635 | 0.164
FNDC4 (GeneID 64838) | 0.128 | 0.285 | 0.367 | 0.0226 | 0.245
ATP1A2 (GeneID 477) | 0.085 | 0.107 | 0.277 | 0.0293 | 0.153
PLXNA4 (GeneID 91584) | 0.0601 | 0.0855 | 0.315 | 0.00843 | 0.117
PTPRB (GeneID 5787) | 0.112 | 0.0825 | 0.23 | 0.0145 | 0.0825
ACAP1 (GeneID 9744) | 0.187 | 0.228 | 0.345 | 0.0267 | 0.0682
OR1Q1 (GeneID 158131) | 0.229 | 0.376 | 0.541 | 0.0832 | 0.176
KIF9 (GeneID 64147) | 0.0706 | 0.0712 | 0.205 | 0.0197 | 0.117
COBL (GeneID 23242) | 0.158 | 0.608 | 0.284 | 0.0646 | 0.289
DPYD (GeneID 1806) | 0.0849 | 0.13 | 0.326 | 0.0313 | 0.135
UBE2N (GeneID 7334) | 0.0588 | 0.249 | 0.218 | 0.0146 | 0.139
SLC9A1 (GeneID 6548) | 0.066 | 0.0791 | 0.338 | 0.0355 | 0.137
GOLGA2P10 (GeneID 80154) | 0.233 | 0.25 | 0.579 | 0.069 | 0.315
TUSC3 (GeneID 7991) | 0.121 | 0.0789 | 0.261 | 0.0227 | 0.126
MTMR9 (GeneID 66036) | 0.102 | 0.206 | 0.3 | 0.0236 | 0.177
CYP46A1 (GeneID 10858) | 0.0536 | 0.179 | 0.263 | 0.00817 | 0.327
PTGES2 (GeneID 80142) | 0.133 | 0.229 | 0.278 | 0.0199 | 0.248
WFS1 (GeneID 7466) | 0.15 | 0.317 | 0.443 | 0.0359 | 0.323
HILPDA (GeneID 29923) | 0.0896 | 0.708 | 0.311 | 0.0291 | 0.109
ZCCHC3 (GeneID 85364) | 0.164 | 0.154 | 0.248 | 0.0231 | 0.202
B4GALT2 (GeneID 8704) | 0.155 | 0.48 | 0.241 | 0.0562 | 0.259
CTBS (GeneID 1486) | 0.161 | 0.498 | 0.338 | 0.0225 | 0.31

Laid out differently: entries from further up
gene knocked down,"BNIP3L mRNA, set 1","NDRG1 mRNA, set 1","BNIP3 mRNA, set 1","ALDOC mRNA, set 1","ACSL5 mRNA, set 1"
TFCP2L1 (GeneID 29842),0.0835,0.31,0.387,0.0232,0.231
EPB42 (GeneID 2038),0.0513,0.111,0.265,0.0354,0.152
MIS18BP1 (GeneID 55320),0.129,0.25,0.351,0.0192,0.17
EIF4EBP1 (GeneID 1978),0.0824,0.0933,0.408,0.0136,0.142
TRAF3 (GeneID 7187),0.0789,0.0503,0.253,0.017,0.14
BAZ1A (GeneID 11177),0.105,0.162,0.341,0.0512,0.303
DENND5A (GeneID 23258),0.205,0.274,0.304,0.0635,0.164
